Values of other authors in patent US20030018027A1 (priority 2001, published 2003).

Columns and labels:
[1] = test system: ventromedial nucleus of hypothalamus (VMH); conditions: VMH stimulated by water absorbent polymers; cited from earlier work
kainate receptors = conditions: rat; cited from earlier work

Question: Which “inhibition of rat running activity caused by polymers” value [1] does the source give for `NCCCC(=O)O` [GABA, γ-aminobutyric acid] here?
Answer: inhibited

Question: What about the “inhibition of running activity induced by kainate” value (kainate receptors) of the same compound?
Answer: not inhibited
